Measurements from PMC7819943, “Rice protein-binding microarrays: a tool to detect cis-acting elements near promoter regions in rice”.
The list shows a part of the results.

The sequences below were run against T1, OsSMF1 (Oryza sativa, UniProt Q6ZLB0 1-436) (assay: protein-binding microarray (RPBM); PBS, 2% BSA, 51.3 ng/ul salmon testes DNA, 50 uM zinc acetate, 200 nM TF, 25 C, 1 h; high values mean tight binding). Conditions: protein: recombinant; tags: N-terminal polyhistidine and DsRed monomer fusion (pET32a); chain copies: 2; label: CyDye5-dUTP incorporated in the synthesized complementary strand; 3' TTTTT single-stranded linker to array surface; dsDNA, one strand shown.
T1 sequence: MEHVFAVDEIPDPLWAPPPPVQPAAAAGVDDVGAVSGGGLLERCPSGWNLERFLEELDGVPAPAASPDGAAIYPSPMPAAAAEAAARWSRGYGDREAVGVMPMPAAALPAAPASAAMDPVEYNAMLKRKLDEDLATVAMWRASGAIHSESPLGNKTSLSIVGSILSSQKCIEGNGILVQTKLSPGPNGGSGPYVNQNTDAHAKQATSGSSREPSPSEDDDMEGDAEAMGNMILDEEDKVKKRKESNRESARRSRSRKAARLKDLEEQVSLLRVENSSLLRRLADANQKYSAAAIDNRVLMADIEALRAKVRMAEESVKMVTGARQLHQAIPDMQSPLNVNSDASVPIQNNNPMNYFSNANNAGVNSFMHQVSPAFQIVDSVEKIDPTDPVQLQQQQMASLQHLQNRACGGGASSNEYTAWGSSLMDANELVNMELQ
Outline: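 Using Ni–NTA, transcription factors fused N-terminally to polyhistidine and DsRed were purified after expression in E. coli BL21-CodonPlus. These were incubated at 200 nM with a blocked, double-stranded custom Agilent array for 1 h at 25 °C in a buffer containing 50 µM zinc acetate, and the array was washed. The binding signal is per-feature fluorescence intensity (arbitrary units) on an Axon 4000B scanner.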

Row | Sequence | binding signal
1 | TCCATGGCGCCACACGTCACCACCTTCTCACACCCTCGTCCGGAGTCACCTAGTGCAG | 18400 fluorescence intensity (a.u.)
2 | GATGGATCGGTTAGTCTTGTTAATTTCGTCATCAGCTTATCGGAGTCACCTAGTGCAG | 3270 fluorescence intensity (a.u.)
3 | CGTCTGGCCCTGCCACATGACATGCATGCGCCACGCACGACGGAGTCACCTAGTGCAG | 5910 fluorescence intensity (a.u.)
4 | TGTAAACATCCCATACTGGCTCTTACGCAAAACTTTCACCCGGAGTCACCTAGTGCAG | 54100 fluorescence intensity (a.u.)
5 | CCGCACCCGAATCTCGCGGCGTCGCCTCGTCAGACCTCAGCGGAGTCACCTAGTGCAG | 4400 fluorescence intensity (a.u.)
6 | CCCTTCCGGCTTCCACGCGTCGGGAACCGAAGTCCAAACCCGGAGTCACCTAGTGCAG | 3360 fluorescence intensity (a.u.)
7 | TACTGACATGTGGACCTGATGATCTTTAGACCCACATGTCCGGAGTCACCTAGTGCAG | 3470 fluorescence intensity (a.u.)
8 | TCACTGCGTGCATGTATGTACGTGGATTGTCCAATTACAACGGAGTCACCTAGTGCAG | 3300 fluorescence intensity (a.u.)
9 | ATATCTGCTTATGTCACTCATCTCATCTGCTAAATTTGGCCGGAGTCACCTAGTGCAG | 7870 fluorescence intensity (a.u.)
10 | AGTCAACAACAGGCGGGAGGAGGGGAGGAGGCGGAGGCAGCGGAGTCACCTAGTGCAG | 4630 fluorescence intensity (a.u.)
11 | CCTTTGTCGTCTCAGCACTTGCTGTTAATTGTATACCCCACGGAGTCACCTAGTGCAG | 3350 fluorescence intensity (a.u.)
12 | AGTCTATTGCTGAGATGTACATGTTTTATAGATAGCACCTCGGAGTCACCTAGTGCAG | 3400 fluorescence intensity (a.u.)
13 | CACATGTGGACCCACATGTCATTGAGATAGGGGTGGCAAACGGAGTCACCTAGTGCAG | 3780 fluorescence intensity (a.u.)
14 | CGTCGTCTTGTTGCTGCTGACGAGCCCGCTGATTTTGGCTCGGAGTCACCTAGTGCAG | 4790 fluorescence intensity (a.u.)
15 | TGATGGAATGCAAGCGTGAGTGTATGGCACATGATAACATCGGAGTCACCTAGTGCAG | 23600 fluorescence intensity (a.u.)
16 | CTAAACAGGCCCTAAGCCTGCCATAGAGTGTAAATCATTTCGGAGTCACCTAGTGCAG | 3140 fluorescence intensity (a.u.)
17 | ATTGAATTTATCAAATCTTTGTGTTCATCGCGTAAGCATGCGGAGTCACCTAGTGCAG | 3140 fluorescence intensity (a.u.)
18 | GGCCAGGGCCAGTCGCGTCCGCGTTTGATCTCCGTCAGATCGGAGTCACCTAGTGCAG | 3700 fluorescence intensity (a.u.)
19 | TCACCAACCCGACGTGGCCGCTCTTCCACGTCAACATCCTCGGAGTCACCTAGTGCAG | 22100 fluorescence intensity (a.u.)
20 | GCAGCAGCAGCAGCAGGAGGAGGAGGAGGGAGGAGGATTGCGGAGTCACCTAGTGCAG | 3310 fluorescence intensity (a.u.)
21 | CACGACAAACTGAGCCAAAATTCACAAGTCTGCGGAGAAACGGAGTCACCTAGTGCAG | 7060 fluorescence intensity (a.u.)

Row | Sequence | binding signal
22 | GAAGCCATCCACGCGGCACCATCGGACGGCTCTCGCGCCCCGGAGTCACCTAGTGCAG | 5210 fluorescence intensity (a.u.)
23 | AGCAGGAGGAGGAGGTGGTGGTGGCCATCGACGTGGACCGCGGAGTCACCTAGTGCAG | 10200 fluorescence intensity (a.u.)
24 | GTATGGTTTTAATTTTATGTGTATTCGGATGACATGGATACGGAGTCACCTAGTGCAG | 3920 fluorescence intensity (a.u.)
25 | TATTTCTTGGCCATACTTTTGCCACATGCCACAACTTACCCGGAGTCACCTAGTGCAG | 4870 fluorescence intensity (a.u.)
26 | ATCTGACTTGGTAGTCCTGACGACCTGACCATACATATGCCGGAGTCACCTAGTGCAG | 3470 fluorescence intensity (a.u.)
27 | GCTGCTAGCTGGCTCAGGCTGTCGTCATGTTCCAAAAGTCCGGAGTCACCTAGTGCAG | 4960 fluorescence intensity (a.u.)
28 | TTTGTATAACATAGTAGTTTTGTCAATATACTTAAGTCACCGGAGTCACCTAGTGCAG | 3450 fluorescence intensity (a.u.)
29 | CACGTATTCTCCCAAACCGCGTCATCCTCCATCTATCTACCGGAGTCACCTAGTGCAG | 6980 fluorescence intensity (a.u.)
30 | GATTCCGTAGTCGTCGTCATCAGTAGTCTATCGATTTTGCCGGAGTCACCTAGTGCAG | 7900 fluorescence intensity (a.u.)
31 | TTGCTGGCCACAGCTGACGCTGAATGTTGGCCTGCAGCCTCGGAGTCACCTAGTGCAG | 4900 fluorescence intensity (a.u.)
32 | AGCCTTGTATTACCTGTCAGGTGACAGGTGGGGCCCCAGACGGAGTCACCTAGTGCAG | 4620 fluorescence intensity (a.u.)
33 | TAGCATCGCCACGCTGACACCGAGACGAGCTCCGACCGCTCGGAGTCACCTAGTGCAG | 4100 fluorescence intensity (a.u.)
34 | CTCGAGATTCGTGCGGCGGAAAACCGACGGCCGAGATAGGCGGAGTCACCTAGTGCAG | 31900 fluorescence intensity (a.u.)
35 | AGTGGGCCCCACCCCGTCCGAGTCAGCGGCAACGGCCGGCCGGAGTCACCTAGTGCAG | 7140 fluorescence intensity (a.u.)
36 | CAATTAAATCTTTACAACAAGATCTCACATGATTATATTTCGGAGTCACCTAGTGCAG | 12800 fluorescence intensity (a.u.)
37 | CGAGCCACTGCTCACGTGGGCCCGTGGCGTCCCCAGACCCCGGAGTCACCTAGTGCAG | 5150 fluorescence intensity (a.u.)
38 | GCCCCGTCGACAACAACGGGCTCAGACAACTGCGACAGTGCGGAGTCACCTAGTGCAG | 4220 fluorescence intensity (a.u.)
39 | CGCCTGCTGCCGCGCCGCCGCGCCGTACGCCCACCTCCCGCGGAGTCACCTAGTGCAG | 3530 fluorescence intensity (a.u.)
40 | CGATATACCTATCCTGACTGGGGACGTGGCGGACACCCATCGGAGTCACCTAGTGCAG | 9570 fluorescence intensity (a.u.)
41 | CAAGTGAGCCCCACAAGTTGACTCAACAGTCAACAGGGTCCGGAGTCACCTAGTGCAG | 4430 fluorescence intensity (a.u.)
42 | TCCATGCTAATTCAGCCGCCACGTAGCATAAAACCGGGGTCGGAGTCACCTAGTGCAG | 13700 fluorescence intensity (a.u.)

Retrieved one by one from the entries so far (3):
Row | Sequence | binding signal
39 | CGCCTGCTGCCGCGCCGCCGCGCCGTACGCCCACCTCCCGCGGAGTCACCTAGTGCAG | 3530 fluorescence intensity (a.u.)
36 | CAATTAAATCTTTACAACAAGATCTCACATGATTATATTTCGGAGTCACCTAGTGCAG | 12800 fluorescence intensity (a.u.)
24 | GTATGGTTTTAATTTTATGTGTATTCGGATGACATGGATACGGAGTCACCTAGTGCAG | 3920 fluorescence intensity (a.u.)
